According to PMC10611234:
These are yes or no findings as the source states them, for the method shown. Binding seen in cells or lysates may run through a third protein. Some binding calls cover weakened binding; strength is not graded here. For part of these data: Where a sequence is shown, tags or fusion partners need not be part of it.

Chains of the proteins cited; added tags and fusions are not shown.
UniProt P46934: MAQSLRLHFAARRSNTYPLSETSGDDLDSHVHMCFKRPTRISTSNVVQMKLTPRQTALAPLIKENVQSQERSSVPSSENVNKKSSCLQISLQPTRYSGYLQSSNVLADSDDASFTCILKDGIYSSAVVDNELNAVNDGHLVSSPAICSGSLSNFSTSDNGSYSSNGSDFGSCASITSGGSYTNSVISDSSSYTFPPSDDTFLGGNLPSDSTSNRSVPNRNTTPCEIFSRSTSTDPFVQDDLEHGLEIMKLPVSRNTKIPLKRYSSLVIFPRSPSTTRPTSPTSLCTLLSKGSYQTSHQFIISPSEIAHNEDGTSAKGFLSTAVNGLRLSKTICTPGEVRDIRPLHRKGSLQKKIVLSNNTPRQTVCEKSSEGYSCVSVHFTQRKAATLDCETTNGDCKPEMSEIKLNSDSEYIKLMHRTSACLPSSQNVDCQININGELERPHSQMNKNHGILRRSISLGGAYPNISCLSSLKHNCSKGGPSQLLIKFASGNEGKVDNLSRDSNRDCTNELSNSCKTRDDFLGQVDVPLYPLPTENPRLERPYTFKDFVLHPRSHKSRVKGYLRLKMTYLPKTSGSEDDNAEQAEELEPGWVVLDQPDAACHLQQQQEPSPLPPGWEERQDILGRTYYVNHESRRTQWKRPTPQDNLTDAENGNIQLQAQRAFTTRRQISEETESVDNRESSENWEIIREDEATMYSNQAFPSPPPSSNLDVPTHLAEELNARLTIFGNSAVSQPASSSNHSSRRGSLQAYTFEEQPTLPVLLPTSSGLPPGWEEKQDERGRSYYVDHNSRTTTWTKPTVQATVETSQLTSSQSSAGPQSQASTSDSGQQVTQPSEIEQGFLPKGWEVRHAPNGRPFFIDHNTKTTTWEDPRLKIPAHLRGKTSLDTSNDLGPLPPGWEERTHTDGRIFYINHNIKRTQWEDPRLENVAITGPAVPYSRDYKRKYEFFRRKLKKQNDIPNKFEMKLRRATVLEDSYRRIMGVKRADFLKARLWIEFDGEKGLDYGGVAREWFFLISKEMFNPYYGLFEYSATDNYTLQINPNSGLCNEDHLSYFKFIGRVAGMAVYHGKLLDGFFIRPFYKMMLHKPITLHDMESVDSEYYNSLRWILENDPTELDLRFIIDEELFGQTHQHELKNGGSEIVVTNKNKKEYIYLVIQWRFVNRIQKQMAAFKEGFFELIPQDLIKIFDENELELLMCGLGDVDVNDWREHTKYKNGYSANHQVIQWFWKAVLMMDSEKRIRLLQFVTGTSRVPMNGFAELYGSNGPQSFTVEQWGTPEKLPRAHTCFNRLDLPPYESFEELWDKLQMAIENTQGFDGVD
UniProt Q01628: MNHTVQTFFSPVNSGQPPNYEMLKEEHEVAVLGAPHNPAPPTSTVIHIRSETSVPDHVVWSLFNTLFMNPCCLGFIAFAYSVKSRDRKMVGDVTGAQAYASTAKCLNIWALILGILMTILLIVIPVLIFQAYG

Assays:
[1] = target: T1, Human Myc-tagged NDFIP2 (human) (UniProt Q9NV92); assay: co-IP; HEK293T cells transfected with NEDD4, IFITM3 and NDFIP2 together (DNA ratio 1:1:0.2); lysis/IP buffer 50 mM Tris/HCl pH 7.4, 150 mM NaCl, 0.1% NP-40, 1 mM EDTA; IP with antibodies specific for IFITM3, NDFIP2 and NEDD4; Western blot
T1 sequence: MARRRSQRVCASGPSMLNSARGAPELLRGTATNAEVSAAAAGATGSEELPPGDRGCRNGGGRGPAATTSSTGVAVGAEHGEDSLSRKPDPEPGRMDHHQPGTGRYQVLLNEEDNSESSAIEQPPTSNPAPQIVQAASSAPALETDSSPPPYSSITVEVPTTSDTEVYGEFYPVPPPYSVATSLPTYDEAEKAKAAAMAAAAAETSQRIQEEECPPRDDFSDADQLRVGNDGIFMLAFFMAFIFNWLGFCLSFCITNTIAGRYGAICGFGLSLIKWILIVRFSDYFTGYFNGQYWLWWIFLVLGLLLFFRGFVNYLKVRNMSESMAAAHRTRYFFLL

HA-NEDD4 (pCI-HA-NEDD4) [2] = target: HA-NEDD4 (pCI-HA-NEDD4) (UniProt P46934); assay: as above
[3] = target: T1, Human Myc-tagged NDFIP2 (human); assay: co-IP; HEK293T cells transfected with the proteins in pairs; lysis/IP buffer 50 mM Tris/HCl pH 7.4, 150 mM NaCl, 0.1% NP-40, 1 mM EDTA; 1 ug monoclonal antibody, Protein A-sepharose; Western blot
HA-NEDD4 (pCI-HA-NEDD4) [4] = target: HA-NEDD4 (pCI-HA-NEDD4) (UniProt P46934); assay: as above

Measured: binding

Flag-tagged human IFITM3 (from UniProt Q01628 1-133)
binds: [1] | HA-NEDD4 (pCI-HA-NEDD4) [2] | [3] | HA-NEDD4 (pCI-HA-NEDD4) [4]

HA-NEDD4 (pCI-HA-NEDD4) (from UniProt P46934 1-1319) (enzyme)
binds: [1] | [3]
